This note sets out measurements from PubChem BioAssay AID256 (DTP/NCI, 2004).

This experiment relates to CD2F1 mice, L1210 leukemia ip, survival T/C. As to the kind of experiment: NCI In Vivo Anticancer Drug Screen. Data for tumor model L1210 Leukemia (intraperitoneal) in CD2F1 (CDF1) mice. As to conditions: higher T/C = longer survival. Summed up:
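In this screen, transplantable tumors were grown in mice given either the compound or its vehicle. Results were expressed as the treated measurement relative to the control measurement.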

The list does not hold the whole screen: it is rich in T/C values a quarter to a half above the control, in often repeated tests (any T/C) and in doses without a T/C. Further doses and runs are listed elsewhere. T/C: endpoint of the treated group in % of that of the vehicle group. Some entries give survivors of the animals treated and no T/C: the source files T/C as zero there, which appears to mark a toxic dose or a test without result, not a measured value. Some doses without a T/C left all or most animals alive at the check, yet need not have been tolerated: survival well below the control is almost never listed, so the zero probably covers shortened survival too. Counts of survivors are from the toxicity check (mostly the fifth day) where no day follows; animals may have died later. Schedule codes are those of the source, taken here to give the interval after Q, in days (D) or hours (H), and the number of doses after X. Where survival is the endpoint, this PubChem deposit counts one and a half times the control or more as active, and values a quarter to a half above the control carry no call in these data; other NCI protocols may use other cut-offs. Counts like (3×) stand for listed records that agree. Some entries hold several experiments; their values stand side by side, smallest first. Some T/C values are followed by the survivors on the day toxicity was checked, most often the fifth; without a count, all were alive then.

For the compound `NCCCNCCCCNC(=O)C(O)NC(=O)CCCCCCN=C(N)N` (stereo not drawn), the T/C was 146 % of control (T/C endpoint: median survival time, dose: 0.19 mg/kg/injection, schedule: Q01DX009 (ip), vehicle: saline); 139 % of control (T/C endpoint: median survival time, dose: 0.39 mg/kg/injection, schedule: Q01DX005 (iv), vehicle: saline); 140 % of control [5 of 6 alive] (T/C endpoint: median survival time, dose: 0.39 mg/kg/injection, schedule: Q01DX009 (ip), vehicle: saline); 148 % of control (T/C endpoint: median survival time, dose: 0.78 mg/kg/injection, schedule: Q01DX005 (iv), vehicle: saline); 179, 190, 200, 207 % of control (T/C endpoint: median survival time, dose: 0.78 mg/kg/injection, schedule: Q01DX009 (ip), vehicle: saline, evaluated on day 30); 161 % of control (T/C endpoint: median survival time, dose: 0.78 mg/kg/injection, schedule: Q01DX009 (ip), vehicle: saline, evaluated on day 40). Further, the T/C is 213 % of control (T/C endpoint: median survival time, dose: 0.78 mg/kg/injection, schedule: Q01DX009 (ip), vehicle: saline, evaluated on day 60); 191, 195, 204, 224 % of control (T/C endpoint: median survival time, dose: 1.56 mg/kg/injection, schedule: Q01DX009 (ip), vehicle: saline, evaluated on day 30); 162 % of control (T/C endpoint: median survival time, dose: 1.56 mg/kg/injection, schedule: Q01DX009 (ip), vehicle: saline, evaluated on day 40); 219 % of control (T/C endpoint: median survival time, dose: 1.56 mg/kg/injection, schedule: Q01DX009 (ip), vehicle: saline, evaluated on day 60); 203, 206, 220, 229 % of control (T/C endpoint: median survival time, dose: 3.12 mg/kg/injection, schedule: Q01DX009 (ip), vehicle: saline, evaluated on day 30); 180 % of control [5 of 6 alive] (T/C endpoint: median survival time, dose: 3.12 mg/kg/injection, schedule: Q01DX009 (ip), vehicle: saline, evaluated on day 40). Also, the T/C was 223 % of control (T/C endpoint: median survival time, dose: 3.12 mg/kg/injection, schedule: Q01DX009 (ip), vehicle: saline, evaluated on day 60); 200, 212, 220, 228 % of control (T/C endpoint: median survival time, dose: 6.25 mg/kg/injection, schedule: Q01DX009 (ip), vehicle: saline, evaluated on day 30); 188 % of control (T/C endpoint: median survival time, dose: 6.25 mg/kg/injection, schedule: Q01DX009 (ip), vehicle: saline, evaluated on day 40); 225 % of control (T/C endpoint: median survival time, dose: 6.25 mg/kg/injection, schedule: Q01DX009 (ip), vehicle: saline, evaluated on day 60); 220 and 229 % of control (T/C endpoint: median survival time, dose: 6.7 mg/kg/injection, schedule: Q01DX009 (ip), vehicle: saline, evaluated on day 30); 233 and 235 % of control (T/C endpoint: median survival time, dose: 6.7 mg/kg/injection, schedule: Q01DX009 (ip), vehicle: saline, evaluated on day 45). Also, the T/C reads like this: (T/C endpoint: median survival time, dose: 7.88 mg/kg/injection, schedule: Q03HX008 (sc), vehicle: water) 144 % of control; (T/C endpoint: median survival time, dose: 10.0 mg/kg/injection, schedule: Q01DX009 (ip), vehicle: saline, evaluated on day 30) 227 and 232 % of control; (T/C endpoint: median survival time, dose: 10.0 mg/kg/injection, schedule: Q01DX009 (ip), vehicle: saline, evaluated on day 45) 230 and 240 % of control; (T/C endpoint: median survival time, dose: 12.5 mg/kg/injection, schedule: Q01DX009 (ip), vehicle: saline, evaluated on day 30) 214, 228, 244, 247 % of control; (T/C endpoint: median survival time, dose: 12.5 mg/kg/injection, schedule: Q01DX009 (ip), vehicle: saline, evaluated on day 40) 189 % of control; (T/C endpoint: median survival time, dose: 12.5 mg/kg/injection, schedule: Q01DX009 (ip), vehicle: saline, evaluated on day 60) 250 % of control. In addition, the T/C by setting is: (T/C endpoint: median survival time, dose: 15.0 mg/kg/injection, schedule: Q01DX009 (ip), vehicle: saline, evaluated on day 30) 233 and 235 % of control; (T/C endpoint: median survival time, dose: 15.0 mg/kg/injection, schedule: Q01DX009 (ip), vehicle: saline, evaluated on day 45) 241 % of control (2×); (T/C endpoint: median survival time, dose: 15.75 mg/kg/injection, schedule: Q03HX008 (sc), vehicle: water) 144 % of control; (T/C endpoint: median survival time, dose: 22.5 mg/kg/injection, schedule: Q01DX009 (ip), vehicle: saline, evaluated on day 30) 239 and 245 % of control; (T/C endpoint: median survival time, dose: 22.5 mg/kg/injection, schedule: Q01DX009 (ip), vehicle: saline, evaluated on day 45) 165 and 247 % of control; (T/C endpoint: median survival time, dose: 25.0 mg/kg/injection, schedule: Q01DX009 (ip), vehicle: saline, evaluated on day 30) 228, 231, 241, 265 % of control. For the same compound, the T/C (T/C endpoint: median survival time, dose: 25.0 mg/kg/injection, schedule: Q01DX009 (ip), vehicle: saline, evaluated on day 60) was 100 % of control [9 of 10 alive]. Moreover, the survivor count reads like this: (T/C endpoint: median survival time, dose: 10.0 mg/kg/injection, schedule: Q01DX005 (iv), vehicle: other) 5 of 10; (T/C endpoint: median survival time, dose: 12.5 mg/kg/injection, schedule: Q01DX005 (iv), vehicle: saline) 2 of 10; (T/C endpoint: median survival time, dose: 16.67 mg/kg/injection, schedule: Q01DX005 (iv), vehicle: other) 0 of 10; (T/C endpoint: median survival time, dose: 16.67 mg/kg/injection, schedule: Q01DX005 (iv), vehicle: saline) 0 of 10; (T/C endpoint: median survival time, dose: 25.0 mg/kg/injection, schedule: Q01DX005 (iv), vehicle: saline) 0 of 10; (T/C endpoint: median survival time, dose: 45.0 mg/kg/injection, schedule: Q01DX005 (sc), vehicle: water) 3 of 10 on day 7. Further, the survivor count by setting is: (T/C endpoint: median survival time, dose: 50.0 mg/kg/injection, schedule: Q01DX005 (iv), vehicle: saline) 0 of 10; (T/C endpoint: median survival time, dose: 50.0 mg/kg/injection, schedule: Q01DX009 (ip), vehicle: saline) 1 of 10; (T/C endpoint: median survival time, dose: 63.0 mg/kg/injection, schedule: Q03HX008 (sc), vehicle: water) 0 of 10.

As for `Clc1ccc(C2(c3ccncc3)OCCO2)cc1`, the survivor count (T/C endpoint: mean survival time, dose: 400.0 mg/kg/injection, schedule: Q04DX003 (ip), vehicle: saline) was 5 of 6.

Take `Nc1cc(NCc2ccco2)ncn1`: the survivor count by setting is: (T/C endpoint: mean survival time, dose: 150.0 mg/kg/injection, schedule: Q01DX009 (ip), vehicle: Klucel (hydroxypropylcellulose) (HPC)) 3 of 6; (T/C endpoint: mean survival time, dose: 300.0 mg/kg/injection, schedule: Q01DX009 (ip), vehicle: Klucel (hydroxypropylcellulose) (HPC)) 0 of 6.

`Cc1cc(C)c(C(C)(C)O)c(C)c1`: the survivor count (T/C endpoint: mean survival time, dose: 100.0 mg/kg/injection, schedule: Q04DX003 (ip), vehicle: saline with Tween-80) is listed as 6 of 6.

On to `Nc1ccccc1O`, for which the survivor count (T/C endpoint: mean survival time, dose: 400.0 mg/kg/injection, schedule: Q01DX009 (ip), vehicle: saline with Tween-80) is recorded as 2 of 6.

With `O=C(CBr)CC(O)(C(F)(F)F)C(F)(F)F`, the survivor count is given as 6 of 6 (T/C endpoint: mean survival time, dose: 25.0 mg/kg/injection, schedule: Q04DX003 (ip), vehicle: saline); 1 of 6 (T/C endpoint: mean survival time, dose: 50.0 mg/kg/injection, schedule: Q04DX003 (ip), vehicle: saline); 3 of 6 (T/C endpoint: mean survival time, dose: 100.0 mg/kg/injection, schedule: Q04DX003 (ip), vehicle: Klucel (hydroxypropylcellulose) (HPC)); 3 of 6 (T/C endpoint: mean survival time, dose: 200.0 mg/kg/injection, schedule: Q04DX003 (ip), vehicle: Klucel (hydroxypropylcellulose) (HPC)); 0 of 6 (T/C endpoint: mean survival time, dose: 400.0 mg/kg/injection, schedule: Q04DX003 (ip), vehicle: Klucel (hydroxypropylcellulose) (HPC)).

For the compound `COc1cc(/C=N\NC(C)=O)cc(OC)c1OC`, under “T/C endpoint: mean survival time, dose: 400.0 mg/kg/injection, schedule: Q04DX003 (ip), vehicle: saline with Tween-80”, the survivor count is 3 of 6.

For `N#C[CH2][Sn]([I])([c]1ccccc1)[c]1ccccc1`, for the setting “T/C endpoint: mean survival time, dose: 1.56 mg/kg/injection, schedule: Q01DX009 (ip), vehicle: saline”, the survivor count was 1 of 3.

For `CCC(Cc1ccccc1)C1=NC(C)(C)CC(C)O1` (stereo not drawn), where the note is “T/C endpoint: mean survival time, dose: 400.0 mg/kg/injection, schedule: Q01DX001 (ip), vehicle: saline with Tween-80”, the survivor count is recorded as 0 of 6.
